The assay addresses T1, interferon regulatory factor 7 (IRF7), Flag-tagged (UniProt P70434).
T1 sequence: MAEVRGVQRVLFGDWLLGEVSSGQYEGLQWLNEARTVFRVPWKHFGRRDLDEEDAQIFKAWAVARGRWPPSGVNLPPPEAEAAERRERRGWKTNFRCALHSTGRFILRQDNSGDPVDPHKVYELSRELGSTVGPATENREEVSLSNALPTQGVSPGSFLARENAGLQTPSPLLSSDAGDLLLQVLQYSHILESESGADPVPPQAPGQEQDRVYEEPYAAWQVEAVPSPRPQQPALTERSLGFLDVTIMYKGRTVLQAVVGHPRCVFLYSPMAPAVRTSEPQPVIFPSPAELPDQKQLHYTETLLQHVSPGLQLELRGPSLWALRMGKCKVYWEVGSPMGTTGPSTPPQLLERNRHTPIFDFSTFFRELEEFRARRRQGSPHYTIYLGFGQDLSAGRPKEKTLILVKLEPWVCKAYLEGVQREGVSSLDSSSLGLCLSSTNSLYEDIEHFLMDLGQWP
Put plainly: co-IP.

These are yes or no findings as the source states them, for the method shown. Binding seen in cells or lysates may run through a third protein. Some entries that bind do so weakly or less than the wild type. Where a sequence is shown, tags or fusion partners need not be part of it.

B1: tripartite-motif protein 21 (TRIM21), HA-tagged (protein, UniProt Q62191 1-470)
chain: MSPSTTSKMSLEKMWEEVTCSICLDPMVEPMSIECGHCFCKECIFEVGKNGGSSCPECRQQFLLRNLRPNRHIANMVENLKQIAQNTKKSTQETHCMKHGEKLHLFCEEDGQALCWVCAQSGKHRDHTRVPIEEAAKVYQEKIHVVLEKLRKGKELAEKMEMDLTMQRTDWKRNIDTQKSRIHAEFALQNSLLAQEEQRQLQRLEKDQREYLRLLGKKEAELAEKNQALQELISELERRIRGSELELLQEVRIILERSGSWNLDTLDIDAPDLTSTCPVPGRKKMLRTCWVHITLDRNTANSWLIISKDRRQVRMGDTHQNVSDNKERFSNYPMVLGAQRFSSGKMYWEVDVTQKEAWDLGVCRDSVQRKGQFSLSPENGFWTIWLWQDSYEAGTSPQTTLHIQVPPCQIGIFVDYEAGVVSFYNITDHGSLIYTFSECVFAGPLRPFFNVGFNYSGGNAAPLKLCPLKM
B1: the binding entry is on record as “binds”.
